Test results as given in the supplement of paper PMC11732987, “Enantioselective OTUD7B fragment discovery through chemoproteomics screening and high-throughput optimisation” (Communications Chemistry, 2025).
Some of the results follow. The data scatter; read single values as rough.

The chains behind the UniProt entries cited, without tags or fusion partners. Where a name states a change or a piece, a line headed by the entry shows the natural chain unless it says otherwise. Residues count along the entry.
UniProt Q8WZ82: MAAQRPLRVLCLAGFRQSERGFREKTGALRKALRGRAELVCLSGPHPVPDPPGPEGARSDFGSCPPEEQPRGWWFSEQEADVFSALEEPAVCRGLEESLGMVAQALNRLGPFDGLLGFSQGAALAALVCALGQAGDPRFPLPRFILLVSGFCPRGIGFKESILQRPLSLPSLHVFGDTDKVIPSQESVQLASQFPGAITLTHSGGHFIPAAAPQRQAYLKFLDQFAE
UniProt O96011: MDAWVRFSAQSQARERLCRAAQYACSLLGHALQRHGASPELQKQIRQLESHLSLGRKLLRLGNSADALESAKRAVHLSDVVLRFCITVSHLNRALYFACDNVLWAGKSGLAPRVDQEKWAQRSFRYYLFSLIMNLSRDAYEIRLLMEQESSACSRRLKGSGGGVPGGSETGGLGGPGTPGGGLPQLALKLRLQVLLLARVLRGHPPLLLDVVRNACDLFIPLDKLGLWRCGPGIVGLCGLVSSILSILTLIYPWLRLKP
UniProt Q96HS1, whole entry, looked up: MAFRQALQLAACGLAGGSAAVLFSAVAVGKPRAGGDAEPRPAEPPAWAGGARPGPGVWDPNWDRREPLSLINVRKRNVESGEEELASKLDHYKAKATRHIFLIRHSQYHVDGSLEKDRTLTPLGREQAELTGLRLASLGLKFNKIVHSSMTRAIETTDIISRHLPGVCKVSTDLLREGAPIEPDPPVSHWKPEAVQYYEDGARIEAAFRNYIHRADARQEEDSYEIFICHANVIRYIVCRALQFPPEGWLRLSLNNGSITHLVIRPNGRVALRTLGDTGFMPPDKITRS
UniProt Q01813: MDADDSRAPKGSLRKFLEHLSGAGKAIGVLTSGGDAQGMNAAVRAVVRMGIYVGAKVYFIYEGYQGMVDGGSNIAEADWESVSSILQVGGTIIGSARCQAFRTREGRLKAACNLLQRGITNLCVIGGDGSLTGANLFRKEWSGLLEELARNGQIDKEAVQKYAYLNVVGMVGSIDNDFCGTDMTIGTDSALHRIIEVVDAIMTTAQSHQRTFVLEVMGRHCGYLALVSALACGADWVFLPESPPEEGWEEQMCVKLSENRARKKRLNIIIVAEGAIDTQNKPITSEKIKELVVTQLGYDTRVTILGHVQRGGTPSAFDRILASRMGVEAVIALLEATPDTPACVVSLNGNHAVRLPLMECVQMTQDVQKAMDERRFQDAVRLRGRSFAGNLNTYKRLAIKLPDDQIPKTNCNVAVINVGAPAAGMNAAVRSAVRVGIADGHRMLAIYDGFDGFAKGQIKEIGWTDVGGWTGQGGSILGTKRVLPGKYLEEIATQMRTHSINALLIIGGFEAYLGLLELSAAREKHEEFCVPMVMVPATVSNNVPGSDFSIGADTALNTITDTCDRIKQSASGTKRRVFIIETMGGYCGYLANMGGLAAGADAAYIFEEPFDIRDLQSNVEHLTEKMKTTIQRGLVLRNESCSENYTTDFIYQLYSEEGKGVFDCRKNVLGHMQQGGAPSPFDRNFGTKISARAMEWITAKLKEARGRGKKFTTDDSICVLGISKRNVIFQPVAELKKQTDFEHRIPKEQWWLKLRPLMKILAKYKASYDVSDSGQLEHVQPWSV
UniProt A6NDB9: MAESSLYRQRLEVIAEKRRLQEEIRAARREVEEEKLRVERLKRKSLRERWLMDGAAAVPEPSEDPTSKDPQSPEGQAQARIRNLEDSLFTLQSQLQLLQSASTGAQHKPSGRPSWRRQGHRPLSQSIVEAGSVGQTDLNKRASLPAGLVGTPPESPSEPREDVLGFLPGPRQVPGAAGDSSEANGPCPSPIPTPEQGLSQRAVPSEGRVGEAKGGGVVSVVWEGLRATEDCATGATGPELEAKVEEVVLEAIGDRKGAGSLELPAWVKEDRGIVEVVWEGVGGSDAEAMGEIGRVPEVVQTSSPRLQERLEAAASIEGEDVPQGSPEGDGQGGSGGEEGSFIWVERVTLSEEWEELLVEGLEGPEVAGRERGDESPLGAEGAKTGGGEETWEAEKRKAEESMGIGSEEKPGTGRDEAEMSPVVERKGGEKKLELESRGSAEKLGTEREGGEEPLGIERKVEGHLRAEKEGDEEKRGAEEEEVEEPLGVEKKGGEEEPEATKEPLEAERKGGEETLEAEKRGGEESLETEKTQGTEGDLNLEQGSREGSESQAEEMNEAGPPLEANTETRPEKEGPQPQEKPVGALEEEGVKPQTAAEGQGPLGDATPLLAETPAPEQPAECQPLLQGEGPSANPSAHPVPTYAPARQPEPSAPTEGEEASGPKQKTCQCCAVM
UniProt Q8TEW0, 51-74: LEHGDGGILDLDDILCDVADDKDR
UniProt Q8IXK0: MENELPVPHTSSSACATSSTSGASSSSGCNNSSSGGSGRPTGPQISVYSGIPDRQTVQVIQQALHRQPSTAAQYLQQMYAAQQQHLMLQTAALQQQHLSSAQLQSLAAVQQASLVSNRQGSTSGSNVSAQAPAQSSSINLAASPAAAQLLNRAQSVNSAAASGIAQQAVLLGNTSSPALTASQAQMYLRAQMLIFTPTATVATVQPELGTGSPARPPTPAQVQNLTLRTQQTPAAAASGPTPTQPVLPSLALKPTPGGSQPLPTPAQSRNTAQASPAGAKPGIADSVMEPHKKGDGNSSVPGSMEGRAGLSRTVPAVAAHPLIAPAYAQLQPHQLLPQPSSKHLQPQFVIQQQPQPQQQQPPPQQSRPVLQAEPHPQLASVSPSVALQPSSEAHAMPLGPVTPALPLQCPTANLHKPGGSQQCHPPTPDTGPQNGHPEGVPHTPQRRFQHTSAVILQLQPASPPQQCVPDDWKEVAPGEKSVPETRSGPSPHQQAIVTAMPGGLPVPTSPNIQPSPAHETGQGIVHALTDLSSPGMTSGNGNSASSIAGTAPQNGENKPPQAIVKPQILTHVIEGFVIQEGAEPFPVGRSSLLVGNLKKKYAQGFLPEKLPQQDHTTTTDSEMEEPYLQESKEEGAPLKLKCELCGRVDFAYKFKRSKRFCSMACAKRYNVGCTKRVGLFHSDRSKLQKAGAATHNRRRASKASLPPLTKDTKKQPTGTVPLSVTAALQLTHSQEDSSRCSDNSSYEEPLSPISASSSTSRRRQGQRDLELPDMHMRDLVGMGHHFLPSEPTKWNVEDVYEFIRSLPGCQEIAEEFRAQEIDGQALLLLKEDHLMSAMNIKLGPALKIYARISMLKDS
UniProt Q15154: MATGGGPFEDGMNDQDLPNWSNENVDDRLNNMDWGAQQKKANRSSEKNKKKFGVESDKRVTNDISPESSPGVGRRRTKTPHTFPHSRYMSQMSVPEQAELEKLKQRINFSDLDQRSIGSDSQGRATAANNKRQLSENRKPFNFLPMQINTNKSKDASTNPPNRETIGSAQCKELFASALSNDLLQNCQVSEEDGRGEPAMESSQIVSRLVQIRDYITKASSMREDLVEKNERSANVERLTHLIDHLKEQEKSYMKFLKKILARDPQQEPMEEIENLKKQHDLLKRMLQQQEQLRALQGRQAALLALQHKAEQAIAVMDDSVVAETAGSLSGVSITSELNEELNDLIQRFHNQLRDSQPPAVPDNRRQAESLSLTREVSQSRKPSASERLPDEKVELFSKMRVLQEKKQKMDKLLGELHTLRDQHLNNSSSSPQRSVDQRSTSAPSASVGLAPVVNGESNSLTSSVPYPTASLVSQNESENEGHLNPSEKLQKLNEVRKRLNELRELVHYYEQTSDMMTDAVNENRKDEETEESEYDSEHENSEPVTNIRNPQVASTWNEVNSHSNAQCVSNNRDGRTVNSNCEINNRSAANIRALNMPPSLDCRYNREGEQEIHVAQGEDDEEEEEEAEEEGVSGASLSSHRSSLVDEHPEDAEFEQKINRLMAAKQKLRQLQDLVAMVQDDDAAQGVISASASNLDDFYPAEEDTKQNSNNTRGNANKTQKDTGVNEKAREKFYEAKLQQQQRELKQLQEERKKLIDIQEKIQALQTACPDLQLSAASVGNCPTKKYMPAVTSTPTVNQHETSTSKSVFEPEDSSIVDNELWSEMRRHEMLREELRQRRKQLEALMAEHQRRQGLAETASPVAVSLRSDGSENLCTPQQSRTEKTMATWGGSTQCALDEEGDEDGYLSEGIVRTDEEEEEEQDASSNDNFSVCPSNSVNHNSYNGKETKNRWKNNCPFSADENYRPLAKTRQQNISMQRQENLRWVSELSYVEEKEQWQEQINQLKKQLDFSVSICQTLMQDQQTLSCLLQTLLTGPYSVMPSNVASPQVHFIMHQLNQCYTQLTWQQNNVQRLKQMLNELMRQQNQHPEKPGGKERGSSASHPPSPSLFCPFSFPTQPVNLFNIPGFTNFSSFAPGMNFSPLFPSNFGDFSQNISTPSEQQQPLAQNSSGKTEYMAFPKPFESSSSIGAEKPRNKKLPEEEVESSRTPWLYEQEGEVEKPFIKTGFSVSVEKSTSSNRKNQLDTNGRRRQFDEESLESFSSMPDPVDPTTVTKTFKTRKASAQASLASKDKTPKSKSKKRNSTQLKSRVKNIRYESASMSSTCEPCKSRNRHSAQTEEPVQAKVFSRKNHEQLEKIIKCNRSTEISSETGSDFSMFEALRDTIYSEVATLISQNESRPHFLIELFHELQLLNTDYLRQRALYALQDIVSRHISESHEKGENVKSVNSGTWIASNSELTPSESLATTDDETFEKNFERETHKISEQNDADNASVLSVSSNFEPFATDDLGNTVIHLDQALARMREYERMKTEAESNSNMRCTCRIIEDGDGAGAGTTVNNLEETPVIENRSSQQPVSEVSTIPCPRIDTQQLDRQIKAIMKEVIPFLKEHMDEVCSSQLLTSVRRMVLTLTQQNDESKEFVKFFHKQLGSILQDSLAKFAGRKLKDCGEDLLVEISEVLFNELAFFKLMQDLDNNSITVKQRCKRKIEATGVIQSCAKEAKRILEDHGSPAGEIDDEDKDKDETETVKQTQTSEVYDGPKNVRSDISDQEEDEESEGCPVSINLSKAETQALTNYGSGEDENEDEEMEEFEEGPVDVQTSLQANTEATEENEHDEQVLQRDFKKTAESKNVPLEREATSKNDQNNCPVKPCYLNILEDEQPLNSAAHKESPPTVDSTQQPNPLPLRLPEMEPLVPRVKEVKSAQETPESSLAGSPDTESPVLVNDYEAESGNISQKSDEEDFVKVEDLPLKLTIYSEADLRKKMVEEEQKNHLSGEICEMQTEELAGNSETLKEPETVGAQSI
UniProt P27815: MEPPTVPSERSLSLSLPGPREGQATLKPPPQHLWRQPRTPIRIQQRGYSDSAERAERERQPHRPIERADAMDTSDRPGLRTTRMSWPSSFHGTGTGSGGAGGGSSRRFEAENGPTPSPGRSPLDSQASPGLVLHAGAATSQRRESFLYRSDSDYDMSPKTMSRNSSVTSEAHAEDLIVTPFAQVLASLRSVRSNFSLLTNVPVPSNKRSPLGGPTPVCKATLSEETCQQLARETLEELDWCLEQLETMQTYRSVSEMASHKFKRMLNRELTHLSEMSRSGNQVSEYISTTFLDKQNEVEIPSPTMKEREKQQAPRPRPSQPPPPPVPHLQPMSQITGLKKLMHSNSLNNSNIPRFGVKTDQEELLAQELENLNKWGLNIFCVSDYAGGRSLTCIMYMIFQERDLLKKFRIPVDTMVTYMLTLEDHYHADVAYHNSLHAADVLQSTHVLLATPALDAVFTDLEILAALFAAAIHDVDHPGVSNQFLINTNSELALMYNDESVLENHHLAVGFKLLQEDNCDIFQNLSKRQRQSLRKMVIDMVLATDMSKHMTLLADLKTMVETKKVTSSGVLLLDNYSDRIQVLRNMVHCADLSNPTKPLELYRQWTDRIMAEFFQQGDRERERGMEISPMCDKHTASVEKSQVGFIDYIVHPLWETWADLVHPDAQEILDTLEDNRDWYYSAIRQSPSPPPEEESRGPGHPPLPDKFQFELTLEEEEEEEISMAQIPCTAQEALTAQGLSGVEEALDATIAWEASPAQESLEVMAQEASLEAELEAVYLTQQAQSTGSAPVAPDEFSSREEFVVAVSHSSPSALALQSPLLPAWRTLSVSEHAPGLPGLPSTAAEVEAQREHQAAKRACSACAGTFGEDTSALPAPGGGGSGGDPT
UniProt O00151: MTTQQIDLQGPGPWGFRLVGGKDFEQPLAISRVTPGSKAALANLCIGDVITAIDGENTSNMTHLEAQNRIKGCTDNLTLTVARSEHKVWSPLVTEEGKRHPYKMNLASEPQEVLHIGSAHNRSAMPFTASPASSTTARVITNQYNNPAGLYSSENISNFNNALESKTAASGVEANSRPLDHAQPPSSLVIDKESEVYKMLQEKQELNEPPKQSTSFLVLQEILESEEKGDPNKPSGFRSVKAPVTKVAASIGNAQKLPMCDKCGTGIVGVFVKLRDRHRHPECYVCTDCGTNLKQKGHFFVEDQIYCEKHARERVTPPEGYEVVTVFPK

compound: ClCC(=O)N[C@@H]1CCCc2ccccc12; experiment: log2 mean competition ratio of IA-DTB cysteine labelling (DMSO/compound) (log2 ratio); higher = stronger cysteine engagement by compound; conditions: 50 µM; treatment time: 4 h; cell line lysate: HEK293T
Description: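 IA-DTB competitive cysteine chemoproteomics in HEK293T RIPA lysate. Lysates were treated with compound 29 or 30 at 50 or 200 µM for 4 h, then IA-DTB (500 µM, 1 h), trypsin-digested, NeutrAvidin-enriched and analysed by diaPASEF. Competition ratio = intensity DMSO / intensity compound (n=4 treated, n=64 DMSO); binding: mean log2 CR ≥ 1 and p ≤ 0.05 plus QC filters. Target is the cysteine site.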

| Target | log2 mean competition ratio |
| --- | --- |
| OVCA2 C64 (UniProt Q8WZ82) | 0.0768 |
| PDE5A C68 (UniProt O76074) | 0.0979 |
| PEX11B C153 (UniProt O96011) | 0.0122 |
| PGM3 C249 | 0.264 |
| PABIR1 C206 | 0.128 |
| PGAM5 C168 (UniProt Q96HS1) | -0.018 |
| PFKP C718 (UniProt Q01813) | -0.0515 |
| PGLS C78 (UniProt O95336) | -0.222 |
| PALM3 C231 (UniProt A6NDB9) | 0.00107 |
| PC C622 (UniProt P11498) | -0.0606 |
| PARD3 C66 (UniProt Q8TEW0) | -0.227 |
| PHC2 C809 (UniProt Q8IXK0) | -0.193 |
| PCM1 C1717 (UniProt Q15154) | 0.127 |
| PGM1 C160 (UniProt P36871) | -0.254 |
| PDE4A C218 (UniProt P27815) | -0.196 |
| PDLIM1 C307 (UniProt O00151) | -0.496 |
| PCNT C2628 (UniProt O95613) | 0.251 |
| PCBP2 C109 | -0.101 |
| PDS5B C579 (UniProt Q9NTI5) | -0.196 |
| PATJ C941 | 0.322 |

same assay, conditions: 200 µM; treatment time: 4 h; cell line lysate: HEK293T

| Target | log2 mean competition ratio |
| --- | --- |
| OVCA2 C64 (UniProt Q8WZ82) | -0.365 |
| PDE5A C68 (UniProt O76074) | 0.00655 |
| PEX11B C153 (UniProt O96011) | 0.105 |
| PGM3 C249 | 0.137 |
| PABIR1 C206 | 0.052 |
| PGAM5 C168 (UniProt Q96HS1) | -0.166 |
| PFKP C718 (UniProt Q01813) | -0.21 |
| PGLS C78 (UniProt O95336) | -0.556 |
| PALM3 C231 (UniProt A6NDB9) | -0.224 |
| PC C622 (UniProt P11498) | 0.0519 |
| PARD3 C66 (UniProt Q8TEW0) | 0.567 |
| PHC2 C809 (UniProt Q8IXK0) | -0.287 |
| PCM1 C1717 (UniProt Q15154) | 0.0425 |
| PGM1 C160 (UniProt P36871) | -0.281 |
| PDE4A C218 (UniProt P27815) | 0.245 |
| PDLIM1 C307 (UniProt O00151) | 0.339 |
| PCNT C2628 (UniProt O95613) | -0.0642 |
| PCBP2 C109 | -0.0244 |
| PDS5B C579 (UniProt Q9NTI5) | 0.584 |
| PATJ C941 | 0.115 |
